# Cleaved PARP in drug-treated melanoma cells

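Human melanoma cells were exposed to two drugs together for 72 h in 1,536-well plates and read by automated microscopy after fixing and staining. Each value is the cleaved-PARP-positive fraction of nuclei relative to DMSO-treated wells, in %, so that 100 equals the control and higher values mean more apoptosis. Concentrations were fixed for each drug; these are the higher of two levels. These are primary screening values without error estimates. Basal and induced levels differ widely between cell lines.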
This is part of the screen, not chosen by result.
An entry leaves out what has no value listed here.

First drug in all entries: fingolimod, 10000 nM, CCCCCCCCc1ccc(CCC(N)(CO)CO)cc1

Cn1c(=O)n(-c2ccc(C(C)(C)C#N)cc2)c2c3cc(-c4cnc5ccccc5c4)ccc3ncc21 at 20 nM gave WM115: 4660; MEL-HO: 7230; G-361: 13200; SK-MEL-5: 57.6.
Nc1cccc2c1CN(C1CCC(=O)NC1=O)C2=O (centres undefined) at 5000 nM gave WM115: 209; MEL-HO: 141; G-361: 283; SK-MEL-5: 102.
Nc1ccn([C@@H]2O[C@H](CO)[C@@H](O)C2(F)F)c(=O)n1 at 2 nM gave WM115: 2100; MEL-HO: 381; G-361: 375; SK-MEL-5: 89.5.
CS(=O)(=O)c1ccc(C(=O)Nc2ccc(Cl)c(-c3ccccn3)c2)c(Cl)c1 at 5000 nM gave WM115: 883; MEL-HO: 3740; G-361: 2550; SK-MEL-5: 2500.
COc1cc2c(Oc3ccc4[nH]c(C)cc4c3F)ncnc2cc1OCCCN1CCCC1 at 2000 nM gave WM115: 998; MEL-HO: 15100; G-361: 1910; SK-MEL-5: 170.
Cn1cc(/C=C2\C(=O)Nc3cccnc32)c2ccccc21 at 2000 nM gave WM115: 827; MEL-HO: 1770; G-361: 2880; SK-MEL-5: 51.7.
COc1ccc(COc2ccc(Cc3cnc(N)nc3N)cc2OC)cc1 at 5000 nM gave WM115: 458; MEL-HO: 1630; G-361: 15700; SK-MEL-5: 134.
CCN(CC)CCNC(=O)c1c(C)[nH]c(/C=C2\C(=O)Nc3ccc(F)cc32)c1C at 2000 nM gave WM115: 4170; MEL-HO: 1260; G-361: 6120; SK-MEL-5: 2180.
C[C@]1(O)C[C@@H](c2nc(-c3ccc4ccc(-c5ccccc5)nc4c3)c3c(N)nccn32)C1 at 2000 nM gave WM115: 1570; MEL-HO: 158; G-361: 8110; SK-MEL-5: 115.
O=C(Nc1ccccc1)c1cc([N+](=O)[O-])ccc1Cl at 10000 nM gave WM115: 278; MEL-HO: 662; G-361: 22100; SK-MEL-5: 87.1.
Cc1cc([N+](=O)[O-])ccc1NS(=O)(=O)c1cc(Cl)ccc1Cl at 5000 nM gave WM115: 256; MEL-HO: 431; G-361: 161; SK-MEL-5: 85.5.
C/C(O)=C(\C#N)C(=O)Nc1cc(Br)ccc1Br at 10000 nM gave WM115: 1120; MEL-HO: 2760; G-361: 6050; SK-MEL-5: 61.6.
NCC(=O)Nc1ccc(-n2nc(C(F)(F)F)cc2-c2ccc3c(ccc4ccccc43)c2)cc1 at 5000 nM gave WM115: 573; MEL-HO: 1610; SK-MEL-5: 390.
Cn1cc(C2=C(c3cn(C4CCN(Cc5ccccn5)CC4)c4ccccc34)C(=O)NC2=O)c2ccccc21 at 4000 nM gave WM115: 2840; MEL-HO: 2510; G-361: 8340; SK-MEL-5: 603.
COc1cc(N2CCC(N3CCN(C)CC3)CC2)ccc1Nc1ncc(Cl)c(Nc2ccccc2S(=O)(=O)C(C)C)n1 at 400 nM gave WM115: 1840; MEL-HO: 210; G-361: 12700; SK-MEL-5: 211.
Cc1cn(-c2cc(NC(=O)c3ccc(C)c(Nc4nccc(-c5cccnc5)n4)c3)cc(C(F)(F)F)c2)cn1 at 1000 nM gave WM115: 3460; MEL-HO: 17300; G-361: 15100; SK-MEL-5: 2170.
Cc1cc(Nc2cc(N3CCN(C)CC3)nc(Sc3ccc(NC(=O)C4CC4)cc3)n2)n[nH]1 at 30 nM gave WM115: 5470; MEL-HO: 120; G-361: 6410; SK-MEL-5: 58.9.
CO[C@H]1C[C@@H]2CC[C@@H](C)[C@@](O)(O2)C(=O)C(=O)N2CCCC[C@H]2C(=O)O[C@H]([C@H](C)C[C@@H]2CC[C@@H](OCCO)[C@H](OC)C2)CC(=O)[C@H](C)/C=C(\C)[C@@H](O)[C@@H](OC)C(=O)[C@H](C)C[C@H](C)/C=C/C=C/C=C/1C at 100 nM gave WM115: 6980; MEL-HO: 169; G-361: 2520; SK-MEL-5: 350.
CC1(C)NC(=O)N(c2ccc([N+](=O)[O-])c(C(F)(F)F)c2)C1=O at 5000 nM gave WM115: 8710; MEL-HO: 1500; G-361: 9470; SK-MEL-5: 131.
CCCCCCCCCCCC1=C(O)C(=O)C=C(O)C1=O at 6000 nM gave WM115: 314; MEL-HO: 207; G-361: 3830; SK-MEL-5: 301.
CCCCCCCCCCCCCCCCCCOP(=O)([O-])OC1CC[N+](C)(C)CC1 at 2000 nM gave WM115: 2670; MEL-HO: 1380; G-361: 6160; SK-MEL-5: 158.
NC(=O)c1ccc(N(C(N)=O)c2c(F)cccc2F)nc1-c1ccc(F)cc1F at 2000 nM gave WM115: 2850; MEL-HO: 908; G-361: 12700; SK-MEL-5: 1410.
Nc1nc(F)nc2c1ncn2[C@@H]1O[C@H](CO)[C@@H](O)[C@@H]1O at 1000 nM gave WM115: 4630; MEL-HO: 1120; G-361: 9010; SK-MEL-5: 967.
CC(C)C[C@H](NC(=O)[C@H](Cc1ccccc1)NC(=O)c1cnccn1)B(O)O at 5 nM gave WM115: 6070; MEL-HO: 4430; G-361: 6510; SK-MEL-5: 1830.

Some entries from above, unchanged:

Partner,WM115,MEL-HO,G-361,SK-MEL-5
Nc1cccc2c1CN(C1CCC(=O)NC1=O)C2=O (centres undefined) at 5000 nM,209,141,283,102
NC(=O)c1ccc(N(C(N)=O)c2c(F)cccc2F)nc1-c1ccc(F)cc1F at 2000 nM,2850,908,12700,1410
C/C(O)=C(\C#N)C(=O)Nc1cc(Br)ccc1Br at 10000 nM,1120,2760,6050,61.6

Source: doi:10.1371/journal.pone.0140310, primary screening data, rounded.